No constants are given. Whether binding was seen depends on the method and setting. Binding seen in cells or lysates may run through a third protein. Some entries that bind do so weakly or less than the wild type. For part of these data: Where a sequence is shown, tags or fusion partners need not be part of it.
Legend:
[1] = molecular target: T1, V5-tagged CREB-regulating transcriptional coactivator 1 (CRTC1) (UniProt Q6UUV9); experiment: co-IP; HEK293T cells co-transfected; lysis buffer 20 mM Tris-HCl pH 7.5, 100 mM NaCl, 0.1% NP-40, 0.5 mM EDTA; lysate with anti-Flag or anti-V5 at 4°C overnight, protein A-agarose, three washes; Western blotting with anti-Flag, anti-V5, anti-Tax
T1 sequence: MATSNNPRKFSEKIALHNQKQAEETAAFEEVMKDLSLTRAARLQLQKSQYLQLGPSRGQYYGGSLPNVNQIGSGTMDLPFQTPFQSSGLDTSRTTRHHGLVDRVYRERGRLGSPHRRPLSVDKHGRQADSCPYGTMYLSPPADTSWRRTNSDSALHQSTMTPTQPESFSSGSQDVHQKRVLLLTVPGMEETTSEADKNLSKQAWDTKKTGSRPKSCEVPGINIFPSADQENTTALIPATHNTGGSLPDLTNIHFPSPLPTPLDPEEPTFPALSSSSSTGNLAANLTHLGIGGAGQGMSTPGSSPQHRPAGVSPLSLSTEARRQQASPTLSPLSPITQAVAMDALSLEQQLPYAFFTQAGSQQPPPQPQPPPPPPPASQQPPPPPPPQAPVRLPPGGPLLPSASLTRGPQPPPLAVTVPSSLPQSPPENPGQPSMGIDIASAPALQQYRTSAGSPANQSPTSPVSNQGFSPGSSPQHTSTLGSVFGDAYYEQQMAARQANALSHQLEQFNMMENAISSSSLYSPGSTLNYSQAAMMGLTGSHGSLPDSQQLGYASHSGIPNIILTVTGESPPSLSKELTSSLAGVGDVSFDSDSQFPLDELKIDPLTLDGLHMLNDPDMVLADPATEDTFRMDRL

Protein sequences, listed by entry. Tags and fused reporters are not part of them. Lines headed by an entry give the natural chain unless they say otherwise; changes in a name come on top. Chains listed by the source or under a name are the forms on record and can include a tag or linker.
UniProt Q13153: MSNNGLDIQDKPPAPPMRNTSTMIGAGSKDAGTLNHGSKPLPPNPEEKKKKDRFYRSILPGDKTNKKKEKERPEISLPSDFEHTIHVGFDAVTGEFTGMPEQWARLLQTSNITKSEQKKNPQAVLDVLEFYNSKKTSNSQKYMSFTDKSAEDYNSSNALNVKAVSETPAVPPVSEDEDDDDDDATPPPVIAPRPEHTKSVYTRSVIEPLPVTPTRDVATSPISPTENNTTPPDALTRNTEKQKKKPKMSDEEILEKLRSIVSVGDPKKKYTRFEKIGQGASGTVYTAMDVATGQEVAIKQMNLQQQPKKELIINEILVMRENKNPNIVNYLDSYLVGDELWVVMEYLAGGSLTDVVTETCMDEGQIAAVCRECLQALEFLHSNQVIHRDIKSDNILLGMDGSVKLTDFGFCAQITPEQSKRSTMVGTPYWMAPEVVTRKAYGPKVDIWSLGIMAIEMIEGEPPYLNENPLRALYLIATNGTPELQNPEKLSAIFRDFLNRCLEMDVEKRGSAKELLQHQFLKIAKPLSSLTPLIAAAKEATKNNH
Flag-tagged p21-activated kinase 3 (Pak3), wild type (O75914-2, form named): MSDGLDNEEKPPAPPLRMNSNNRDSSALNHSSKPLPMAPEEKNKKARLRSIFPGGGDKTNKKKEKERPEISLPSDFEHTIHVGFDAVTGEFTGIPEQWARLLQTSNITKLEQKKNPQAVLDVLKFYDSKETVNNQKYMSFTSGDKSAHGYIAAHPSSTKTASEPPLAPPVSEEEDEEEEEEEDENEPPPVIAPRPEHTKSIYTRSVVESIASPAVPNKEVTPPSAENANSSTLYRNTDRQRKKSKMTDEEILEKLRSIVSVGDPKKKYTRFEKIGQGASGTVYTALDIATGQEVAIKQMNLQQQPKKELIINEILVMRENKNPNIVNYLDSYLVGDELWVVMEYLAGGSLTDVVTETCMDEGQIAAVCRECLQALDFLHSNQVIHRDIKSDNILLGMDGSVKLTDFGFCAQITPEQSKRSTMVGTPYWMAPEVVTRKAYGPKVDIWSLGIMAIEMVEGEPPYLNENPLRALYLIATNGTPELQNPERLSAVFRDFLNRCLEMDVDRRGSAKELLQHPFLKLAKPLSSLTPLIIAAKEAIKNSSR

[2] = molecular target: T2, V5-tagged CREB-regulating transcriptional coactivator 1 (CRTC1) (expressed in HeLa cells) (UniProt Q6UUV9); experiment: co-IP; HeLa cells transfected with expression plasmids for CRTC1-V5 and Tax; precipitation with monoclonal anti-V5, blot with anti-Tax; analysed as in Figure 5; control cells not depleted of Pak1
T2 sequence: T1 sequence

[3] = molecular target: Flag-tagged p21-activated kinase 1 (Pak1) (UniProt Q13153); experiment: co-IP; HEK293T cells co-transfected; lysis buffer 20 mM Tris-HCl pH 7.5, 100 mM NaCl, 0.1% NP-40, 0.5 mM EDTA; lysate with anti-Flag or anti-V5 at 4°C overnight, protein A-agarose, three washes; Western blotting with anti-Flag, anti-V5, anti-Tax
[4] = molecular target: Flag-tagged p21-activated kinase 3 (Pak3), wild type (UniProt O75914); experiment: as above

Substance | binding [1] | binding [2] | binding [3] | binding [4]
Flag-tagged p21-activated kinase 1 (Pak1) (from UniProt Q13153 1-545) (enzyme) | binds | – | – | –
Flag-tagged p21-activated kinase 3 (Pak3), wild type (from UniProt O75914-2 1-544) (enzyme) | binds | – | – | –
HTLV-1 transactivator protein Tax (expressed in HeLa cells) (from UniProt P03409 1-353) | – | binds | – | –
HTLV-1 transactivator protein Tax (from UniProt P03409 1-353) | binds | – | binds | binds
